Reference: patent publication US20150150950A1
Results are given in words; binding and its absence hold for the method and conditions named. Binding seen in cells or lysates may run through a third protein. Some results given as binding are weak or reduced against the parent protein; the word gives no strength.

The chains behind the UniProt entries cited, without tags or fusion partners. Where a name states a change or a piece, a line headed by the entry shows the natural chain unless it says otherwise. Residues count along the entry.
UniProt Q9WV60: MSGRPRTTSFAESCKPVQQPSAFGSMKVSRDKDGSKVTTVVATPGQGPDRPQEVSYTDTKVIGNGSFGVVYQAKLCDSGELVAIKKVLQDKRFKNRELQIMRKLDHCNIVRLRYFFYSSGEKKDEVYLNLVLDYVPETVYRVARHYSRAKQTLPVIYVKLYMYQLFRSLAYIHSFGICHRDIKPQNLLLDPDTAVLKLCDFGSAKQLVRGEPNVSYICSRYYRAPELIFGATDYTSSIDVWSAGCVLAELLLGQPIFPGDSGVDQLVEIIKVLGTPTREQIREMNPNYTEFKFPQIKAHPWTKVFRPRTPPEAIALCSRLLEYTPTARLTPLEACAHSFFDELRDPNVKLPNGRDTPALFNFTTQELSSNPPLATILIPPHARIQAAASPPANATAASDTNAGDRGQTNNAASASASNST
UniProt P47811, residues 2-360: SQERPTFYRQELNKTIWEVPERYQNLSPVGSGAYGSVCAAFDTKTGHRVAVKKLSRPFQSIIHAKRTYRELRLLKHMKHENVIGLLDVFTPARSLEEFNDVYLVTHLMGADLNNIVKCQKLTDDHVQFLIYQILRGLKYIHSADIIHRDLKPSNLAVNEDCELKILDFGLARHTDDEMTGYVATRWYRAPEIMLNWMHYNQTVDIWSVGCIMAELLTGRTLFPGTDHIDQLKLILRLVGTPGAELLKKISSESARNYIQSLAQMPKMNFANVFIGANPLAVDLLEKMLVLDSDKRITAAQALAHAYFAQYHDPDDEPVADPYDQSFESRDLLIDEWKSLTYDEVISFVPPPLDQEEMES

Target: GSK3β (endogenous, MKK6 transgenic mouse thymocytes) (mouse) (UniProt Q9WV60)
Assay: co-immunoprecipitation with anti-GSK3β from MKK6 thymocyte extracts, Western blot (FIG. 2F)

“p38 MAPK (endogenous, MKK6 transgenic mouse thymocytes) (from UniProt P47811 2-360) (enzyme)” was tested, and the binding was “binds”.
